# According to patent US9802996B2 (Glytech, Inc., priority 2011, dated 2017):
# Strings that start with PEPTIDE1 are HELM notation: dots part the residues, brackets hold end groups and non-standard residues.
# Assay: general procedure: Fmoc solid-phase peptide synthesis; 2-chlorotrityl chloride resin; HCTU (TBTU/DIPEA for glycosylated Asn; HOBt/DIC after it)
# Settings: late stage modification step
substance,measurement,value
"PEPTIDE1{S.A.N.S.N.P.A.M.A.P.R.E.R.K.A.G.C.K.[C(GlcNAc)].F.F.W.K.T.F.T.S.C}$PEPTIDE1,PEPTIDE1,17:R3-28:R3$$$V2.0",step yield,yield 64%
